One assay deals with T1, Myc-MINDY1 full length (UniProt Q8N5J2).
T1 sequence: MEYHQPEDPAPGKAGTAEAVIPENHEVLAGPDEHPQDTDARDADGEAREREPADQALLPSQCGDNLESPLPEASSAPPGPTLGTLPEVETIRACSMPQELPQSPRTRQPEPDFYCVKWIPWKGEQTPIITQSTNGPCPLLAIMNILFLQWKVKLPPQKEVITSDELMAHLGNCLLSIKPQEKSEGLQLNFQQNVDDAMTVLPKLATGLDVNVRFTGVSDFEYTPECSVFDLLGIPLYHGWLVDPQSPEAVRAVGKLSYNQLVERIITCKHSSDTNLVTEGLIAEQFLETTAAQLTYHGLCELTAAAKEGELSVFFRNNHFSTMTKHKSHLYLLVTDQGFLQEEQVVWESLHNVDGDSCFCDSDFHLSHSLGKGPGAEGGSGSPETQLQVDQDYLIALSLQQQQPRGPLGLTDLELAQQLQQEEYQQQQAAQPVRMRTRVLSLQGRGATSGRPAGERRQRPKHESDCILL
Put plainly: co-IP; HEK293 cells transfected with 2 µg Myc-MINDY1 together with HA-ERα full length or mutants; 24 h; NP-40 lysis buffer; IP with Myc antibody, detection with HA antibody.

Sequences of proteins named here, by UniProt entry; tags and fusion partners are left off.
UniProt P03372: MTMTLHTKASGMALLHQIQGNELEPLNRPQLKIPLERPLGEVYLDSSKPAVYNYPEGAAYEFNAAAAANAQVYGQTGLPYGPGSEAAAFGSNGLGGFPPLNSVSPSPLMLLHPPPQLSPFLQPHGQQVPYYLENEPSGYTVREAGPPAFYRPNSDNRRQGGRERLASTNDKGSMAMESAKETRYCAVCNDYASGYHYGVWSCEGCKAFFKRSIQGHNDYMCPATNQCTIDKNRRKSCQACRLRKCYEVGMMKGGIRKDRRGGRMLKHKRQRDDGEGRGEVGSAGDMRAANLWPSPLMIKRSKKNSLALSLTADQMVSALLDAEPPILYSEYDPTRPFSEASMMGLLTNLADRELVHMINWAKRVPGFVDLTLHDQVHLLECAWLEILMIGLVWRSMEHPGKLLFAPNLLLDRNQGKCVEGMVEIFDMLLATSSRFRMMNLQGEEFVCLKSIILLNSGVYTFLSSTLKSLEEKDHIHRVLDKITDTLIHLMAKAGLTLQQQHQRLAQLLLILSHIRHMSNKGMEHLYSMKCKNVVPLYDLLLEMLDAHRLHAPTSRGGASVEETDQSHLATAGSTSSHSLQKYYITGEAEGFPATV

For assay [1], the target named is Estrogen receptor alpha (endogenous, MCF-7 cells) (human (endogenous in MCF-7)) (UniProt P03372). The experiment in a line: co-IP; endogenous proteins from MCF-7 lysate; legend: RIPA lysis buffer, antibody as indicated; methods: NP-40 lysis buffer, 4 °C overnight, protein A/G PLUS-Agarose beads; western blot.
The next assay addresses GST-ERα (UniProt P03372). The experiment in a line: pull-down; purified His-MINDY1 incubated with GST-ERα or GST protein; glutathione agarose beads, overnight; washed with GST binding buffer; bound MINDY1 detected by western blot; both purified.

Drawing on paper PMC8514509, this text covers binding for 3 molecules.

These are yes or no findings as the source states them, for the method shown. For part of these data: Binding seen in cells or lysates may run through a third protein. Some binding calls cover weakened binding; strength is not graded here. For part of these data: Where a sequence is shown, tags or fusion partners need not be part of it.

In the case of “HA-ERα full length (from UniProt P03372 1-595) (receptor)”, the binding result in the assay with Myc-MINDY1 full length is given as “binds”.

B1: MINDY1 (endogenous, MCF-7 cells) (enzyme, UniProt Q8N5J2 1-469)
chain: T1 sequence
Turning to B1, the binding result in assay [1] is “binds”.

B2: Purified His-MINDY1 (enzyme, UniProt Q8N5J2 1-469)
chain: T1 sequence
Consider B2, for which the binding result with GST-ERα is recorded as “binds”.
